Whole data set: some 33,000 sequences, median “E-score (-0.5 to 0.5)” near -8e-05, cut for the highest 2% near 0.23. This is one part of the list.

The source of these data is the supplement of paper PMC3334620.

The target in the assay is T1, Nrg2 (UniProt P38082).
T1 sequence: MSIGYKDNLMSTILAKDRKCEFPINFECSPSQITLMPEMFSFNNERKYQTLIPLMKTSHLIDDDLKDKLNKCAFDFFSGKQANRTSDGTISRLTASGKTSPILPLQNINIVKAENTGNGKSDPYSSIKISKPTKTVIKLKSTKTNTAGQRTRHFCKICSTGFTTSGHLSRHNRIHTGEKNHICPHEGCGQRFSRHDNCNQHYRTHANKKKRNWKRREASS
Kind of assay: PBM E-score (8-mer binding enrichment) (E-score (-0.5 to 0.5)); higher = stronger / more preferred TF binding. The note with it: protein concentration: 100 nM; construct: GST-full length. Here is the method: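 Universal 'all 10-mer' protein binding microarrays (Agilent AMADID 015681) probed with GST-tagged S. cerevisiae TFs (full-length or DBD) made by in vitro transcription/translation (PURExpress), about 100-200 nM. Bound TF was detected with fluorescent anti-GST. Each ungapped 8-mer (which stands for itself and its reverse complement) is scored by the PBM enrichment score (E-score), a modified Wilcoxon-Mann-Whitney statistic from -0.5 to +0.5, computed with the Universal PBM Analysis Suite. Scale: above 0.35 generally sequence-specific binding.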
As to CTGAGCGA, the “PBM E-score” value was -0.106.

As for ATGGAGGA, the “PBM E-score” value is -0.0258. On to CAGGGTCA, for which the “PBM E-score” value turned out to be 0.0802. As for CACGTATC, the “PBM E-score” value was -0.00716. For CAAGGTGG the value was -0.0176.

CACAACGA: the “PBM E-score” value was -0.059. For CCTTGTGA the value was -0.044; for CGCTGCCC, -0.213; for CGGTTTCA, -0.0393. With AGAAATTC, the “PBM E-score” value is -0.0387.

ACCACCAC: the “PBM E-score” value came out at 0.0164. For AGCTAAGG the value was -0.224.

With AAATCGCA, the “PBM E-score” value was found to be 0.158. GCAGATTA: the “PBM E-score” value was determined as 0.0952.

In the case of CAGTGCCG, the “PBM E-score” value is -0.0687. For CGGGGTAG the value was -0.0188. In the case of AATTATTC, the “PBM E-score” value worked out at 0.198.

Regarding ATGTCAAT, the “PBM E-score” value came to 0.0977.

For the sequence GTCCCCAC, the “PBM E-score” value is -0.178. With GAGTGGTA, the “PBM E-score” value was determined as 0.0172. As to AGCCTGCG, the “PBM E-score” value is -0.233. For AATCGAAC, the “PBM E-score” value worked out at 0.169. For AAACTAAT, the “PBM E-score” value was 0.199. GTTACAAC: the “PBM E-score” value turned out to be 0.126.

As for ATCTTCGG, the “PBM E-score” value amounted to 0.0324.

Take ACGTGCCT: the “PBM E-score” value is 0.00112. As for ATTTGGGA, the “PBM E-score” value amounted to 0.0513. For ATCCCATC the value was -0.144. For the sequence ATCGGCGG, the “PBM E-score” value came to 0.199. Regarding CTTGGGTA, the “PBM E-score” value is -0.00881.

As for GACTAGAA, the “PBM E-score” value was -0.0796. Turning to ACATCAGC, the “PBM E-score” value is -0.00951. With CGGACCCC, the “PBM E-score” value was 0.0837. For CTTCGAAC the value was 0.108; for GACTCACC, -0.148; for GCCACTCA, 0.0595. For TATAGGAA the value was 0.0655. With CAGTTGTC, the “PBM E-score” value turned out to be 0.0512. For GTATCAGA, the “PBM E-score” value is 0.0276. In the case of GGACTGCA, the “PBM E-score” value is -0.154.

Consider AGTACCCC, for which the “PBM E-score” value was -0.0371.

Consider AGGATGGA, for which the “PBM E-score” value is -0.195. As to ATCGACAA, the “PBM E-score” value is 0.119. On to ATTGCAAT, for which the “PBM E-score” value is 0.243.

As for AGCATGTC, the “PBM E-score” value worked out at 0.0343. ACGTTCAA: the “PBM E-score” value is -0.133.

GGATAACA: the “PBM E-score” value was -0.0583. As for ATATTAGG, the “PBM E-score” value worked out at 0.18. For GATTCGGC the value was 0.0798; for ATCAAAGA, -0.0298. Consider CCCTAGAG, for which the “PBM E-score” value amounted to 0.15. As for GCCTATCC, the “PBM E-score” value was -0.175. Regarding GTAGCTCA, the “PBM E-score” value was -0.0915.

On to TAACGACA, for which the “PBM E-score” value was 0.115. Turning to AAATACAT, the “PBM E-score” value turned out to be 0.0058. For the sequence ACAACTGC, the “PBM E-score” value is -0.016. With AGGGACCT, the “PBM E-score” value came to 0.382. For ATGATCTG the value was 0.15. As to CGCTGTGC, the “PBM E-score” value was 0.167.

Consider CGACAAGC, for which the “PBM E-score” value is -0.0195.

CAACATCC: the “PBM E-score” value is -0.0888. For the sequence CCGGGAGC, the “PBM E-score” value was -0.266.

As to AGGCTGAG, the “PBM E-score” value was -0.0549.

For the sequence CCAAAGTA, the “PBM E-score” value came to 0.00471. Turning to GAAGTTAA, the “PBM E-score” value was -0.00457. Consider ACATCAAT, for which the “PBM E-score” value was determined as 0.079. Regarding CAAACCAC, the “PBM E-score” value was -0.00637. As to CCACCAAG, the “PBM E-score” value worked out at 0.0215. Regarding AAACCCAG, the “PBM E-score” value worked out at 0.00959. In the case of ACATCAAC, the “PBM E-score” value was determined as 0.228. Turning to AATAACAC, the “PBM E-score” value is 0.197. As for GACCAAGC, the “PBM E-score” value is -0.0404. ATCAATGC: the “PBM E-score” value amounted to 0.0965.

In the case of AACATCCA, the “PBM E-score” value stood at 0.0677. Take GGACAAAC: the “PBM E-score” value is 0.0767.

For the sequence ATAGCCAG, the “PBM E-score” value was -0.127. As for GAAAAGGA, the “PBM E-score” value was -0.0375. For CCTGATCG, the “PBM E-score” value is -0.0221.

For the sequence AAATTGAT, the “PBM E-score” value came to 0.115.

Turning to ATTTGTGA, the “PBM E-score” value was -0.0161. For GAGCTAAA the value was -0.0724; for TCCTGCCA, -0.123; for ACCTCCAA, -0.174.

On to ATGGAAAA, for which the “PBM E-score” value stood at 0.0617. As to ACGGGTCA, the “PBM E-score” value is -0.231. With CTTTAAAA, the “PBM E-score” value is -0.0806. In the case of AATCTGAG, the “PBM E-score” value was -0.0573. Turning to ACGGTCTG, the “PBM E-score” value is -0.0636.

CAATACGA: the “PBM E-score” value came out at 0.0389.

As to GAGTATAC, the “PBM E-score” value is -0.00627. For GTGCCCAA the value was -0.029; for GCCTTGCC, -0.147; for CAGCTACA, 0.0867. For GACTAAGC the value was -0.0902.
